# PubChem BioAssay AID493014 (National Center for Advancing Translational Sciences (NCATS), 2011)
# Hit rate of the full screen: of about 340,000 compounds, about 170 (0.05%) were called active. The inconclusive results got no clear call from the source; some entries with a clear call stand among them for comparison. The call rests on the fitted dose curve; in most records, active means well fitted inhibition curve with a large enough effect in the signal ratio, with a control signal flat (not every such curve was filed as active); inconclusive means small, poorly fitted or top-dose-only effect, or effect the other way, or a change in a side signal; inactive means flat fitted curve, though single readings scatter; the % refers to the signal ratio. A potency beside an inconclusive call is a rough fit, not a confirmed value.
# Test: qHTS Assay to Find Inhibitors of Chronic Active B-Cell Receptor Signaling;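 on activity change, negative = inhibition: plate controls were basal doxycycline-induced cells for no effect and cells given 10 µM MG132 for full effect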
# Conditions: ABC-DLBCL IkBa-CBG/CBR reporter, luminescence ratio (green luciferase fused to IkBa over red control in TMD8 lymphoma cells), 4 h
# How it was run: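 Doxycycline induced both beetle luciferases in TMD8 lymphoma cells; IKK-driven degradation limits the IkappaBalpha-fused green signal, while red luminescence normalises for cell number and nonspecific effects. Compounds tested up to 46 uM, 4 hrs.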
# [1] = activity change, negative = inhibition: at 46.1 µM (top of the series)
# Potency means the concentration at half of the fitted maximal effect.
compound,measurement,setting,value
CC(C)(C)C1CCC(=NNc2ncc(C(F)(F)F)cc2Cl)CC1 (stereo not drawn),"activity change, negative = inhibition",[1],inconclusive: 23.9%
Cc1ccc(C)c(-n2cc(CN3CCN(C(=O)c4ncn[nH]4)CC3)c(-c3ccccc3)n2)c1,Potency,[1],"inconclusive: 12.6 µM [falling, partial curve, poor fit]"
C/C(=N/NC(=O)c1ccc(Cl)s1)c1cccnc1,"activity change, negative = inhibition",[1],inconclusive: 13.1%
CCCCC1=CC2=CC(=O)C(C)(OC(=O)CC)C(=O)C2=CN1CCc1c[nH]c2ccccc12 (stereo not drawn),"activity change, negative = inhibition",[1],inactive
CN(C)Cc1ccc(F)cc1Sc1ccc(Cl)cc1Cl,"activity change, negative = inhibition",[1],inconclusive: 3.6%
CC(=O)c1cccc(NC(=O)COC(=O)C2CCCN2C(=O)c2cccs2)c1 (stereo not drawn),"activity change, negative = inhibition",[1],inconclusive: -5.74%
CC(C)(C)NC(=O)COc1coc(CN2CCN(Cc3ccccc3)CC2)cc1=O,"activity change, negative = inhibition",[1],inactive
CCCCNC(=O)Nc1ccccc1C(=O)NCc1ccco1,"activity change, negative = inhibition",[1],inconclusive: -0.83%
O=C(COC(=O)c1cccnc1Nc1cccc(C(F)(F)F)c1)NC1CCS(=O)(=O)C1 (stereo not drawn),Potency,[1],"inconclusive: 29.1 µM [falling, single point]"
Cc1cccc(C(=O)NN2S(=O)(=O)c3ccccc3S2(=O)=O)c1,Potency,[1],"inconclusive: 25.1 µM [falling, single point]"
Nc1cc(Cl)ccc1Oc1ccc(Cl)cc1,Potency,[1],"inconclusive: 35.5 µM [rising, partial curve, poor fit]"
COc1cccc(NC(=O)C2CCCN(S(=O)(=O)c3cccc4nsnc34)C2)c1 (stereo not drawn),"activity change, negative = inhibition",[1],inconclusive: -22%
Cc1c(Cl)ccc2c(C(=O)NCCCn3nccc3C)cc(-c3ccccn3)nc12,"activity change, negative = inhibition",[1],inactive
COCCNC(=O)CCC1CCN(Cc2ccc(-c3ccccc3)cc2)CC1,"activity change, negative = inhibition",[1],inactive
CC(=O)N1CCN(c2ccc(NCc3ccc(C)cc3)cc2)CC1,"activity change, negative = inhibition",[1],inactive
COc1cc(-c2cc(C(=O)Nc3ccc(N4CCOCC4)cc3)c3ccccc3n2)cc(OC)c1OC,"activity change, negative = inhibition",[1],inconclusive: -0.0765%
O=C(Cn1nc(-c2ccc(Cl)cc2)ccc1=O)NCCc1ccccc1,"activity change, negative = inhibition",[1],inactive
Nc1c2c(nc3sc4c(c13)CCCCC4)CCCCC2,"activity change, negative = inhibition",[1],inconclusive: 4.18%
CCC1CCCCN1C(=S)NC(=O)c1cc(Br)ccc1Cl (stereo not drawn),"activity change, negative = inhibition",[1],inactive
O=C(N/N=C/c1ccc(N2CCOCC2)cc1)C1CC1,"activity change, negative = inhibition",[1],inactive
CN(Cc1ccccc1)C(=O)c1nc[nH]c1C(=O)N1CCN(c2ccccc2)CC1,"activity change, negative = inhibition",[1],inconclusive: -3.13%
Cc1ccc(C)c(S(=O)(=O)N(C)Cc2cccs2)c1,"activity change, negative = inhibition",[1],inconclusive: 0.16%
O=C(CCS(=O)(=O)c1ccccc1)Nc1nnc(-c2ccco2)o1,"activity change, negative = inhibition",[1],inactive
COc1ccc(-c2nnc(-c3ccccc3)o2)cc1OC,Potency,[1],"inconclusive: 25.1 µM [falling, single point]"
CCOC(=O)c1c(N)sc(C(O)(C(F)(F)F)C(F)(F)F)c1-c1ccc(F)cc1,"activity change, negative = inhibition",[1],inactive
Cn1c(=NC(=O)CS(=O)(=O)c2ccc(F)cc2)sc2ccccc21,"activity change, negative = inhibition",[1],inactive
CC(=O)Nc1cccc(-c2csc(NCc3ccccc3)n2)c1,"activity change, negative = inhibition",[1],inconclusive: 10.8%
CCNc1nc(NCC)nc(N(C#N)CCOc2ccccc2)n1,"activity change, negative = inhibition",[1],inconclusive: -14.6%
COc1cc(/C=C/C(=O)c2ccc(C)cc2)ccc1OCC#N,"activity change, negative = inhibition",[1],inconclusive: -8.37%
CCCn1c(=O)[nH]c2ccccc21,"activity change, negative = inhibition",[1],inactive
Cn1cc(S(=O)(=O)N2CCc3ccccc32)cc1C(=O)NC(C)(C)C,"activity change, negative = inhibition",[1],inactive
O=C(CSc1nncc2ccccc12)N1CCCCC1,Potency,[1],"inconclusive: 31.6 µM [rising, single point]"
COc1cccc(C(=O)/C=C/Nc2ccc(S(=O)(=O)Nc3ccc(C(C)=O)cc3)cc2)c1,"activity change, negative = inhibition",[1],inconclusive: -27.6%
CCCCOc1ccc(C(=O)NCC(=O)NCC(=O)OCC)cc1,"activity change, negative = inhibition",[1],inactive
CCN1CCN(c2ncnc3c2cnn3-c2cc(Cl)ccc2C)CC1,"activity change, negative = inhibition",[1],inactive
CC(C)c1ccc(-c2noc(C3CCCN(C(=O)c4ccc(F)cc4F)C3)n2)cc1 (stereo not drawn),"activity change, negative = inhibition",[1],inactive
CCOC(=O)NNC(=O)NCCCCCCNC(=O)NNC(=O)OCC,"activity change, negative = inhibition",[1],inactive
COc1ccccc1N1CCN(c2ncnc3c2c(-c2ccccc2)cn3-c2cccc(C)c2)CC1,"activity change, negative = inhibition",[1],inconclusive: 1.18%
COc1ccc(C(=O)Nc2ccc(-c3n[nH]c(=S)o3)cc2)cc1OC,"activity change, negative = inhibition",[1],inconclusive: 1.41%
Cc1ccc(/C=N/N2CCN(Cc3ccc(Cl)cc3)CC2)o1,Potency,[1],"inconclusive: 6.51 µM [falling, single point]"
O=C(NNC(=O)c1ccccc1O)c1ccc(S(=O)(=O)Nc2ccccc2F)cc1,Potency,[1],"inconclusive: 29.1 µM [falling, single point]"
COCC(=O)Nc1ccc(N2CCOCC2)c(S(=O)(=O)Nc2ccccc2OC)c1,"activity change, negative = inhibition",[1],inconclusive: 5.34%
Cc1ccc(N2CCN(S(=O)(=O)c3c(C)nc4scc(C)n4c3=O)CC2)c(C)c1,"activity change, negative = inhibition",[1],inconclusive: 3.35%
CC(C)CCNC(=O)c1ccc2c(c1)ncn2C1CCCC1,Potency,[1],"inconclusive: 35.5 µM [falling, single point]"
O=C(O)C1C2C=CC(C2)C1C(=O)NCCc1cccc(Cl)c1 (stereo not drawn),"activity change, negative = inhibition",[1],inconclusive: 3.7%
COc1ccc(C(=O)C[n+]2cc(-c3ccc(OC)cc3)n3c2CCCC3)cc1,"activity change, negative = inhibition",[1],inconclusive: -12.2%
same,"activity change, negative = inhibition",at 46.1 µM (top of the series),inactive: -1.06%
CC(C)c1nn2c(N)c(/C=C3\C=Nc4ccccc43)c(=O)nc2s1,"activity change, negative = inhibition",[1],inconclusive: 7.11%
CCCCOC(=O)n1c(SCC(=O)N(C)C)nc2ccccc21,Potency,[1],"inconclusive: 0.282 µM [falling, full curve, poor fit]"
Cc1ccccc1NC(=O)c1cc2c(=O)n3cccc(C)c3nc2s1,"activity change, negative = inhibition",[1],inactive
Cc1ccc(OCc2nc(-c3ccccn3)n[nH]2)cc1,Potency,[1],"inconclusive: 29.1 µM [falling, single point]"
Cc1ccccc1OCC(=O)Nc1ccc(C)c(S(=O)(=O)N2CCCCCC2)c1,"activity change, negative = inhibition",[1],inconclusive: -18.8%
COc1ccc(OC)c(S(=O)(=O)Nc2ccccc2C(F)(F)F)c1,Potency,[1],"inconclusive: 29.1 µM [falling, single point]"
c1ccc(-c2cc3c(N4CCCCC4)ncnc3s2)cc1,"activity change, negative = inhibition",[1],inactive
Cc1nc2sc(C(c3cccc(F)c3)N3CCN(C(=O)c4ccco4)CC3)c(O)n2n1 (stereo not drawn),"activity change, negative = inhibition",[1],inconclusive: 8.99%
O=S(=O)(CCSc1nc2ccccc2o1)Cc1ccccc1,"activity change, negative = inhibition",[1],inconclusive: -4%
O=C(N/N=C1\CCCc2ccccc21)c1cccc(Br)c1,Potency,[1],"inconclusive: 35.5 µM [falling, single point]"
O=C(Nc1nnc(-c2ccccc2)o1)c1cccc(N2C(=O)CCC2=O)c1,Potency,[1],"inconclusive: 20.6 µM [falling, partial curve, poor fit]"
Cc1ccc(NC(=S)N(CCN(C)C)Cc2cc3cc(C)cc(C)c3[nH]c2=O)cc1,"activity change, negative = inhibition",[1],inactive
O=C(O)Cc1csc(-c2ccccc2)n1,Potency,[1],"inconclusive: 10 µM [rising, partial curve, poor fit]"
CC(=O)c1cccc(NC(=O)Nc2cc3sccc3n2C)c1,Potency,[1],"inconclusive: 29.1 µM [rising, partial curve, poor fit]"
Clc1cccc(-n2cc(-c3ccccc3)c3c(NC4CCCC4)ncnc32)c1,"activity change, negative = inhibition",[1],inconclusive: 13.3%
Cn1cnc([N+](=O)[O-])c1Sc1ncnc2nc[nH]c12,Potency,[1],"inconclusive: 35.5 µM [falling, single point]"
CNC(=O)/C(=C\C=C\c1ccccc1)NC(=O)c1ccc([N+](=O)[O-])cc1,"activity change, negative = inhibition",[1],inconclusive: -2.98%
CCOC(=O)c1[nH]c2ccc(F)cc2c1NC(=O)CCN1CCOCC1,"activity change, negative = inhibition",[1],inactive
c1ccc(N2CCN(c3ncccn3)CC2)cc1,"activity change, negative = inhibition",[1],inconclusive: 1.59%
CC1CCN(C(=O)CCCOc2cc(=O)n(C)c3ccccc23)CC1,Potency,[1],"inconclusive: 23.1 µM [falling, single point]"
Cc1ccc(SCCNC(=O)/C=C/c2ccc(Cl)cc2)cc1,"activity change, negative = inhibition",[1],inconclusive: -7.06%
Cc1oc(-c2ccccc2F)nc1CS(=O)CC(=O)NCc1ccc2c(c1)OCO2 (stereo not drawn),"activity change, negative = inhibition",[1],inconclusive: -1.11%
COC(=O)c1cc(NC(=O)c2ccco2)ccc1N1CCOCC1,Potency,[1],"inconclusive: 12.6 µM [falling, partial curve, poor fit]"
COC(=O)c1ccc(Sc2ccc(F)cc2)c(N)c1,"activity change, negative = inhibition",[1],inconclusive: 14.4%
COC(=O)c1ccccc1NC(=O)Nc1ccc(Cl)cn1,Potency,[1],"inconclusive: 35.5 µM [rising, single point]"
COc1cccc(S(=O)(=O)NCc2ccc3c(c2)OCO3)c1,"activity change, negative = inhibition",[1],inactive
COc1ccccc1Oc1ccc2c(c1)C(=O)N(c1cccc(O)c1)C2=O,"activity change, negative = inhibition",[1],inconclusive: -0.663%
Cc1cc(C)nc(Sc2ncnc3c2oc2ccccc23)n1,Potency,[1],"inconclusive: 12.6 µM [falling, partial curve, poor fit]"
NS(=O)(=O)c1ccccc1,"activity change, negative = inhibition",[1],inconclusive: 0.166%
COc1ccccc1CNC(=O)c1ccccc1SCC(=O)NCc1ccco1,Potency,[1],"inconclusive: 20.6 µM [falling, single point]"
Cc1cccc(NC(=S)Nc2ccc(Oc3ccccc3)cc2)n1,"activity change, negative = inhibition",[1],inconclusive: 4.2%
O=C(CNCc1ccccc1Cl)Nc1ccc(C(=O)N2CCCCC2)cc1,Potency,[1],"inconclusive: 12.6 µM [falling, partial curve, poor fit]"
CCN(Cc1ccccc1)c1ccc(/C=N/N=C(N)N)cc1,Potency,[1],"inconclusive: 18.4 µM [falling, single point]"
CN1CC(=O)N(CC(=O)Nc2ccc(OC(F)(F)F)cc2)c2ccccc2C1=O,"activity change, negative = inhibition",[1],inactive
O=C(N/N=C\c1cccnc1)c1cc(-c2ccc(Cl)s2)[nH]n1,"activity change, negative = inhibition",[1],inconclusive: 8.8%
S=c1[nH]nc(-c2ccccc2)n1/N=C/c1cccs1,"activity change, negative = inhibition",[1],inconclusive: -0.628%

# No new results follow: an excerpt of the list.
compound,measurement,setting,value
COc1ccccc1CNC(=O)c1ccccc1SCC(=O)NCc1ccco1,Potency,[1],"inconclusive: 20.6 µM [falling, single point]"
Cc1cccc(NC(=S)Nc2ccc(Oc3ccccc3)cc2)n1,"activity change, negative = inhibition",[1],inconclusive: 4.2%
O=C(CNCc1ccccc1Cl)Nc1ccc(C(=O)N2CCCCC2)cc1,Potency,[1],"inconclusive: 12.6 µM [falling, partial curve, poor fit]"

# Part of the list above in another layout.
compound	measurement	setting	value
COc1ccc(C(=O)C[n+]2cc(-c3ccc(OC)cc3)n3c2CCCC3)cc1	activity change, negative = inhibition	at 46.1 µM (top of the series)	inactive: -1.06%
CC(C)c1nn2c(N)c(/C=C3\C=Nc4ccccc43)c(=O)nc2s1	activity change, negative = inhibition	[1]	inconclusive: 7.11%

# 2 records picked at random from those above:
compound,measurement,setting,value
COc1ccccc1N1CCN(c2ncnc3c2c(-c2ccccc2)cn3-c2cccc(C)c2)CC1,"activity change, negative = inhibition",[1],inconclusive: 1.18%
Cn1cc(S(=O)(=O)N2CCc3ccccc32)cc1C(=O)NC(C)(C)C,"activity change, negative = inhibition",[1],inactive
